# Test results: PubChem BioAssay AID1508600 (Functional Genomics Laboratory (NCATS/FGL), 2020)
# The campaign covered roughly 53,000 sequences. About 3,700 (7%) were called active.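 The calls were made as follows: active = gene knockdowns whose robust z-score for IL-1 alpha signal is at least 2 or at most -2, so actives lie on both sides; inactive = the rest.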 The list shows a part of the results.
# Test: Components of the Cytosolic LPS Sensing Pathway: Gene Identification via Genome-wide siRNA Screen;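 also: robust z of the log signal after scaling to non-targeting control siRNA wells of the plate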
# Settings: RAW264.7 macrophages, IL-1a HTRF, actives lie on both sides, screened at 100 nM (by protocol), cells primed 5 h with Pam3CSK4 first
# Outline: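 RAW264.7 mouse macrophages reverse-transfected with single siRNAs (100 nM final) for 48h, primed with Pam3CSK4 for 5 hours, then transfected with LipidA for 24 hour. Supernatant IL-1a read by HTRF; values normalized to negative-control median, log-transformed robust z-scores.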
row,Sequence,z-score
1,GCUGACCGUUACAUCACCATT against Mc2r,inactive: -0.876
2,CGCAAGCCAAUCUUCGAAUTT against Shfl,inactive: 1.06
3,GGCCAUCGUACGUGUUUGATT against Cdhr3,inactive: 0.966
4,GGCACCAAUUACAAGAAAATT against V1rg10,inactive: 0.257
5,GGCCAGAGGACUAUGUUAUTT against C1s2,inactive: 1.24
6,CCCUAUACCUGAAGCAUUATT against Gabrr2,inactive: 0.0149
7,GGCAUCUUCGAAAAAUGAUTT against Reck,inactive: -0.552
8,GUUACAGUAUUCUAUGGGATT against Olfr1080,inactive: 0.508
9,GGAAGAACAGUUCAGCGGATT against Rtkn2,inactive: -0.243
10,GGUGGAAGAUUAGUGACUUTT against Trim38,inactive: 1.63
11,GGAUAAUGGAGCAAAUUGCTT against Slc22a1,inactive: -0.522
12,GGGAGUCUUUUUGUUCCCUTT against Lypd1,inactive: -0.961
13,GCUAAAGAAGGUAACUCAGTT against Zfyve28,inactive: -0.947
14,GGAUAAGGAUGCUAAAUUCTT against Rps13,inactive: -0.847
15,GGGAAGUUAUAAUGGAAGUTT against Rps15a,active: 2.46
16,CCGUCUGAUGAAAACACUATT against Itprid2,inactive: 0.263
17,GGAGAACAUUCCUUUACAGTT against Ces1d,inactive: 0.585
18,GCAAAUGGUUAUGCAUACATT against Clec4a2,inactive: 0.661
19,GGACUGACUCUUUUUUAACTT against Uba3,inactive: -0.697
20,CGUAUCAACAUCUCAGAAGTT against Pcbp2,inactive: -0.632
21,CCCUUAGGAAACAUGUGGATT against 4930519G04Rik,inactive: -0.587
22,GGUGAUCUUUUAUAUUGUGTT against Dmc1,inactive: -1.36

row,Sequence,z-score
1,CCAUUGAUCUGAUGCAAAATT against Epcam,inactive: -0.357
2,GGCCUUUGGUACAUGUAGUTT against Olfr692,inactive: 0.557
3,CGGUCAACAUCAAUGGUAATT against Gkn1,inactive: -1.28
4,CCCAUCUUCGUAAAGAGAATT against Mtx1,inactive: -0.393
5,GGAUUCAAAAAAAAAUCGCTT against A2m,inactive: 0.189
6,GCUCAAAAGAAGUGAGCCUTT against 4631405J19Rik,inactive: -1.99
7,GGAACACUCUGAAUUCAUUTT against Cxcl15,inactive: 0.0905
8,GGUUUGAUGUUAGACAACGTT against Trim34a,inactive: 0.652
9,GGGUUUCUGACACAUUUCUTT against Tmem260,inactive: 0.386
10,GCUACCUAUGCCAAUAUCATT against Efemp1,inactive: -0.787
11,GCAGUUUGUAUUUGACCUATT against Erp44,inactive: 0.533
12,CCUUAGAUAUCUACUGUAATT against Trim2,inactive: 1.37
13,GCAUUUAUUACUGUGGAGATT against Olfr1467,inactive: 0.45
14,GGGAAAAUGGAAAAUACAUTT against Emc3,active: 2.59
15,GGUGACUGUUCAGAUGGAGTT against Zfp655,inactive: -0.506
16,GCUUGUAUUGCUUGUCUUUTT against Olfr172,inactive: 1.89
17,GCUACAAUAUGACAAGUGUTT against Adamts5,inactive: 0.0297
18,GGAAAGAAUGUUUUGUUUCTT against Phex,inactive: 0.0899
19,CGAUUACAGCCUUUGUAGATT against Atp2a2,inactive: -0.956
20,CGGUCCCUAAGAAACUCUGTT against Tbc1d2,inactive: 0.943
21,GCUUUGUGGCUCAAGCCAATT against Dnajc22,inactive: -0.339
22,GGCUGUGCAGUCUACAAUCTT against Nsmce2,inactive: 0.44

row,Sequence,z-score
1,GGUGAUUAUCGAGAUGAUCTT against Dpagt1,inactive: -1.09
2,GGAGAAACCUGUGUGCAGATT against Tulp4,inactive: -1.35
3,GGACCAUCUCUGAUGAACCTT against Fhdc1,inactive: 0.439
4,GCGGCUCCAAAAUUGUGCUTT against Ipo13,inactive: 0.302
5,GGUGCUGAGCAUGGUGUUATT against Spag4,active: 3.17
6,GGAAUACAGUCUUUAUAUGTT against Slco4c1,inactive: 0.784
7,GGCUUUGCUCGGUUUGGUATT against Zfp870,inactive: -0.572
8,GGUACUGAAUAGGACAAAGTT against Stra8,inactive: -0.422
9,GGCUGUGAUGUAAAACAGATT against Leo1,inactive: 1
10,GGCUAACUUUGACACGAACTT against Cyfip2,inactive: 0.242
11,GGCCUUCUAUACUACAGACTT against Hdac1,inactive: -1.23
12,GGAGGUUCAUAUUAAAUGATT against A330041J22Rik,inactive: -1.38
13,GGAAUUUCUUCAGGACACUTT against Procr,inactive: 0.278
14,GGGACACAGCUAAAAGCUUTT against Fam20b,inactive: 0.146
15,GGGUGCCGUGGUCAUUUUATT against Ccnd3,inactive: 1.65
16,CGCCUUGCUUUGUUACCAATT against Tshz2,inactive: 0.625
17,GGCACAGCGGGUGAUCAAATT against Tnfaip8l2,inactive: -0.723
18,GGAAGCUGAUGGCUAUGACTT against Arc,inactive: -0.943
19,CCGUAUGAUUGUCCAAGAGTT against Nckipsd,inactive: 0.172
20,GGUGAUAUUGCCUAGGUACTT against Fmod,inactive: -0.391
21,GGAGUUUGAUCUGCUUCGGTT against Kctd6,inactive: 0.367
22,CAGAGUAUAGCAUAGUGACTT against Psg22,inactive: -0.00244

# 4 entries picked at random from those above:
row,Sequence,z-score
1,GGUGAUUAUCGAGAUGAUCTT against Dpagt1,inactive: -1.09
2,GGAGAAACCUGUGUGCAGATT against Tulp4,inactive: -1.35
21,GGAGUUUGAUCUGCUUCGGTT against Kctd6,inactive: 0.367
16,CGCCUUGCUUUGUUACCAATT against Tshz2,inactive: 0.625

# Further results follow.

row,Sequence,z-score
1,GGUGAAAACCCUAACAGUCTT against Dcaf12l2,inactive: -1.36
2,GGUUCUUGUUCAUUCUCUUTT against Slc4a4,inactive: -0.0837
3,CCACUUGAGAGGUGUUUUUTT against Ints5,inactive: 1.57
4,CUCACUUCCCUAUCCAGAGTT against Cracr2b,inactive: -0.349
5,GGACAGCUACAUAAGCUUUTT against Il17d,inactive: -1.37
6,GGACAAGCUGAAGACGCACTT against Zfp64,active: 3.03
7,GGAGAGUAUACCUGUCUGGTT against Fgfr4,inactive: 1.27
8,GGGAUUCAAACAGGUCUUGTT against Ahsg,inactive: -0.0178
9,GGCUAGCUAACUAUCUCUGTT against Spint4,inactive: -0.201
10,GGAAGAUGUAUUCUUCUCCTT against Gemin4,inactive: 0.499
11,GGUGGAUCCCAACUGUUUCTT against Akap10,inactive: -0.159
12,GGUAUAGAUGACCAGAAGATT against Cwc15,inactive: -0.189
13,CCCAUAUCUUAAUCAAAAGTT against Akr1e1,inactive: 1.48
14,GGUGAUGAAGAGGUUCCCUTT against Fzd4,inactive: -0.868
15,GGUUAAGAGCUCUACAAAUTT against Gdpd4,inactive: 0.702
16,GGGCAUGUACUAUGAGCCATT against Ctsll3,inactive: -0.888
17,CCCAUGGGCAGAUGAAAGCTT against Olfr1441,inactive: -0.482
18,CGAGAACAGAGGUUUUUAATT against Mxi1,inactive: 0.0641
19,GCUAAGUGUAGAAAACAGGTT against Shox2,inactive: -0.949
20,GGCUUUUACCGCCAAGACGTT against Snx11,inactive: -0.384
21,GCGGGAGUACUACGUCAAUTT against Reps2,active: -2.07
22,GCAGUUUUGUCAAGUUAGATT against Brinp2,inactive: -0.841

row,Sequence,z-score
1,GGCAGUGAAGAGAAGAAGUTT against Trub2,inactive: -0.835
2,GGUAUGGCGUAAACCAGCUTT against Alad,inactive: -0.715
3,GCGGGUGUACUUAUGGUGATT against Glul,inactive: 0.47
4,GCUGAUUUUAACAAUACCUTT against Fos,inactive: -0.895
5,GGGCCACACAGAAAUGGUUTT against Ank1,inactive: 0.994
6,GGCUGAAGCAGUCUGUUGCTT against Rpp14,inactive: -0.578
7,GGUGACCGUUGUAACUGUGTT against Aph1c,inactive: -0.161
8,CGAAUACGUGUCAUGAUUUTT against Nipsnap2,inactive: 0.339
9,GCAGACAAAGAUCCUAUGCTT against Atp2b3,active: -2.27
10,GGCAAGCUUACAAAAUGGATT against Pgbd5,inactive: -0.667
11,CGGACGAUUUCAAUAUUUUTT against Gsap,inactive: -1.46
12,CCAAGUGGUACUAAUAAAUTT against Ptpn4,inactive: 0.106
13,CCCUCAAUCUAACAGUGCATT against Dsg1b,inactive: 0.75
14,GCUCUGGACUUCGGUAGAUTT against Adrb1,inactive: 0.983
15,GCUACUUGAAUUUAAGGAATT against Mdfic,inactive: 0.22
16,GCGCAAAGAAGUGACUUCATT against Txlna,inactive: 0.124
17,CGGGAUCCAGCCUCUAAGUTT against Palm,inactive: -0.246
18,GCCAAGUAGUAUGUUUCUUTT against Sprn,inactive: 0.464
19,CCCUUCCUUUUACCAACAATT against Tmod4,inactive: 0.325

# Reformatted with bars between the fields: entries from further up
row | Sequence | z-score
3 | GCGGGUGUACUUAUGGUGATT against Glul | inactive: 0.47
6 | GGCUGAAGCAGUCUGUUGCTT against Rpp14 | inactive: -0.578
7 | GGUGACCGUUGUAACUGUGTT against Aph1c | inactive: -0.161
9 | GCAGACAAAGAUCCUAUGCTT against Atp2b3 | active: -2.27
